The values below come from the supplement of paper PMC12889115.

The structures appear in SMILES notation. The list shows a part of the results. These are raw signals, not scaled to a control.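 First-pass screen: polymyxin B was added at a level that permeabilizes the Salmonella outer membrane while sparing the inner membrane. DMSO wells, with and without polymyxin B, defined maximum growth. Because plates differed from one another, each plate's data were ranked separately and the compounds with the lowest OD600 were carried forward as hits.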

This assay relates to Salmonella enterica serovar Typhimurium SL1344. The assay can be described thus: bacterial growth OD600 after 18 h with compound and polymyxin B; higher = more bacterial growth (less inhibition). Conditions: 50 µM, Mueller-Hinton broth.

For the compound `CCOC(=O)C1(Cc2ccc(F)cc2F)CCCN(C(=O)c2sc(C)nc2C)C1` (centres undefined), the “bacterial growth OD600” value (polymyxin B 1 µg/mL) turned out to be 0.882. Turning to `CSCCC(=O)N1CCC(C(=O)Nc2cccc(-c3cccc(Cl)c3)c2)CC1`, the “bacterial growth OD600” value (polymyxin B 1 µg/mL) is 0.012. The same measure, in the same setting: for `COc1ccc(CN2CCCC(C(=O)c3cc(C)c(OC)c(C)c3)C2)cc1O` (centres undefined) the value was 0.872; for `O=C1N(Cc2ccc(F)c(F)c2)CCCC1(O)CN1CCOCC1` (centres undefined), 0.961; for `COC(=O)c1ccccc1C(=O)N1CCCC(N2CCN(c3ccc(F)cc3)CC2)C1` (centres undefined), 0.939. Consider `O=C(COc1ccccc1)NC1CC(=O)N(CCc2ccc(F)cc2)C1` (centres undefined), for which the “bacterial growth OD600” value (polymyxin B 1 µg/mL) came out at 1.05.

Take `C[C@@H]1CN(C2(C(=O)N3CCC(CO)CC3)Cc3ccccc3C2)C[C@H](C)O1`: the “bacterial growth OD600” value (polymyxin B 0.75 µg/mL) came out at 0.832. For `Cc1c(-c2ccccc2F)[nH]c2ccc(CNC(=O)CCN3CCCO3)cc12`, the “bacterial growth OD600” value (polymyxin B 1 µg/mL) turned out to be 0.016. As to `CCOC(=O)C1(Cc2ccccc2F)CCCN(C(=O)C2=CCCC2)C1` (centres undefined), the “bacterial growth OD600” value (polymyxin B 1 µg/mL) was 0.489.
